Source: the supplement of paper PMC7752906
Counter-ions that a name gives are not always drawn. This is one part of the list. Single values are uncertain here, since repeats match poorly.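 About 40 Schistosoma mansoni schistosomula per well were imaged over time in bright field and compared with 0.1% DMSO wells. A drug counts as a hit if its Mahalanobis distance reaches 2.47 or more, three standard deviations above the DMSO control mean. Degeneracy is the fraction of worms scored opaque.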

system: Schistosoma mansoni schistosomula; assay: Mahalanobis distance of static-rate-frequency phenotype descriptors from DMSO controls (dimensionless); higher = stronger phenotypic change versus DMSO; conditions: 10 µM; 72 h

Structure (SMILES) | Mahalanobis distance
Nc1cc(N2CCCCC2)nc(N)[n+]1[O-] [Minoxidil] | active: 3.39
COc1ccc2cc([C@H](C)C(=O)O)ccc2c1 [Naproxen] | inactive: 1.54
CCCN(CCC)CCc1cccc2c1CC(=O)N2 [Ropinirole Hydrochloride] | inactive: 1.93
C/C=C/c1ccc(OC)cc1 [Anethole] | inactive: 0.986
CC(=O)O[C@H]1C(=O)[C@@]2(C)[C@H]([C@H](OC(=O)c3ccccc3)[C@]3(O)C[C@H](OC(=O)[C@H](O)[C@@H](NC(=O)c4ccccc4)c4ccccc4)C(C)=C1C3(C)C)[C@]1(OC(C)=O)CO[C@@H]1C[C@@H]2O [Taxol, Paclitaxel] | inactive: 2.46
NC(=O)c1cnccn1 [Pyrazinamide] | inactive: 2.01
CCCCC[C@H](O)/C=C/[C@H]1[C@H](O)CC(=O)[C@@H]1C/C=C\CCCC(=O)O [Dinoprostone] | inactive: 2.27
Cc1nc2ccccn2c(=O)c1CCN1CCC(C(=O)c2ccc(F)cc2)CC1 [Pirenperone] | active: 3.31
O=C(CCNNC(=O)c1ccncc1)NCc1ccccc1 [Nialamide] | active: 7.76
CCOC(=S)SSC(=S)OCC [Dixanthogen] | inactive: 1.14
Cc1cc2c(s1)Nc1ccccc1N=C2N1CCN(C)CC1 [Olanzapine] | inactive: 1.33
CC(C)OC(=O)C(C)(C)Oc1ccc(C(=O)c2ccc(Cl)cc2)cc1 [Fenofibrate] | active: 2.78
CC(N)CCCC(C)(C)O (centres undefined) [Heptaminol Hydrochloride] | inactive: 1.89
CC(=O)N(c1onc(C)c1C)S(=O)(=O)c1ccc(N)cc1 [Sulfisoxazole Acetyl] | inactive: 2.09
C[C@@H](O[C@H]1OCCN(Cc2n[nH]c(=O)[nH]2)[C@H]1c1ccc(F)cc1)c1cc(C(F)(F)F)cc(C(F)(F)F)c1 [Aprepitant] | active: 2.6
O=C(O)c1cc(/N=N/c2ccc(S(=O)(=O)Nc3ccccn3)cc2)ccc1O [Sulfasalazine] | inactive: 1.39
CCOc1ccc2nc(S(N)(=O)=O)sc2c1 [Ethoxzolamide] | inactive: 1.64
O=C(O)c1ccccc1O [Salicylic Acid] | inactive: 2.08
CC(C)n1c(/C=C/C(O)CC(O)CC(=O)O)c(-c2ccc(F)cc2)c2ccccc21 (centres undefined) [fluvastatin] | inactive: 2.32
CCCCNc1cc(C(=O)O)cc(S(N)(=O)=O)c1Oc1ccccc1 [Bumetanide] | inactive: 1.6
COC(=O)N[C@H](C(=O)N[C@@H](Cc1ccccc1)[C@@H](O)CN(Cc1ccc(-c2ccccn2)cc1)NC(=O)[C@@H](NC(=O)OC)C(C)(C)C)C(C)(C)C [Atazanavir] | active: 3.22
NCCCC(O)(P(=O)(O)O)P(=O)(O)O [Alendronate Sodium] | inactive: 2.07
CNC[C@H](O)[C@@H](O)[C@H](O)[C@H](O)CO [Meglumine] | inactive: 1.34

In a second layout: results already given.

| Structure (SMILES) | Mahalanobis distance |
| --- | --- |
| Nc1cc(N2CCCCC2)nc(N)[n+]1[O-] [Minoxidil] | active: 3.39 |
| COc1ccc2cc([C@H](C)C(=O)O)ccc2c1 [Naproxen] | inactive: 1.54 |
| CCCN(CCC)CCc1cccc2c1CC(=O)N2 [Ropinirole Hydrochloride] | inactive: 1.93 |
| C/C=C/c1ccc(OC)cc1 [Anethole] | inactive: 0.986 |
| CC(=O)O[C@H]1C(=O)[C@@]2(C)[C@H]([C@H](OC(=O)c3ccccc3)[C@]3(O)C[C@H](OC(=O)[C@H](O)[C@@H](NC(=O)c4ccccc4)c4ccccc4)C(C)=C1C3(C)C)[C@]1(OC(C)=O)CO[C@@H]1C[C@@H]2O [Taxol, Paclitaxel] | inactive: 2.46 |
| NC(=O)c1cnccn1 [Pyrazinamide] | inactive: 2.01 |
| CCCCC[C@H](O)/C=C/[C@H]1[C@H](O)CC(=O)[C@@H]1C/C=C\CCCC(=O)O [Dinoprostone] | inactive: 2.27 |
| CCOC(=S)SSC(=S)OCC [Dixanthogen] | inactive: 1.14 |
| CC(C)OC(=O)C(C)(C)Oc1ccc(C(=O)c2ccc(Cl)cc2)cc1 [Fenofibrate] | active: 2.78 |
| CC(=O)N(c1onc(C)c1C)S(=O)(=O)c1ccc(N)cc1 [Sulfisoxazole Acetyl] | inactive: 2.09 |
| C[C@@H](O[C@H]1OCCN(Cc2n[nH]c(=O)[nH]2)[C@H]1c1ccc(F)cc1)c1cc(C(F)(F)F)cc(C(F)(F)F)c1 [Aprepitant] | active: 2.6 |
| CCOc1ccc2nc(S(N)(=O)=O)sc2c1 [Ethoxzolamide] | inactive: 1.64 |
| CC(C)n1c(/C=C/C(O)CC(O)CC(=O)O)c(-c2ccc(F)cc2)c2ccccc21 (centres undefined) [fluvastatin] | inactive: 2.32 |
| CCCCNc1cc(C(=O)O)cc(S(N)(=O)=O)c1Oc1ccccc1 [Bumetanide] | inactive: 1.6 |

(continued)

Structure (SMILES) | Mahalanobis distance
Cc1ccnc(NS(=O)(=O)c2ccc(N)cc2)n1 [Sulfamerazine] | inactive: 1.61
NC(=O)OCC(COC(N)=O)c1ccccc1 [Felbamate] | inactive: 1.16
[O-][n+]1cccc(CO)c1 [Mepiroxol] | inactive: 2.16
CC(=O)N[C@@H](CS)C(=O)O [Acetylcysteine] | inactive: 1.39
CC(C)CCCC(C)N (centres undefined) [Octodrine] | inactive: 1.55
CCN(CC)C(=O)/C(C#N)=C/c1cc(O)c(O)c([N+](=O)[O-])c1 [Entacapone] | inactive: 1.11
C[C@@H]1O[C@@H](OC[C@H]2O[C@@H](Oc3c(-c4ccc(OCCO)c(OCCO)c4)oc4cc(OCCO)cc(O)c4c3=O)[C@H](O)[C@@H](O)[C@@H]2O)[C@H](O)[C@H](O)[C@H]1O [Troxerutin] | inactive: 2.02
CC1(C)O[C@@H]2C[C@H]3[C@@H]4CCC5=CC(=O)CC[C@]5(C)[C@@]4(F)[C@@H](O)C[C@]3(C)[C@]2(C(=O)CCl)O1 [Halcinonide] | active: 3.13
C[C@]12C=CC(=O)C=C1CC[C@H]1[C@@H]3C[C@@H](O)[C@](O)(C(=O)CO)[C@@]3(C)C[C@H](O)[C@@]12F [Triamcinolone] | inactive: 1.94
Cc1cc(C)cc(OCC2CNC(=O)O2)c1 (centres undefined) [Metaxalone] | active: 2.98
CC(=O)O[C@H]1C[C@@H]2CC[C@@H]3[C@H](CC[C@@]4(C)[C@H]3C[C@H]([N+]3(C)CCCCC3)[C@@H]4OC(C)=O)[C@@]2(C)C[C@@H]1N1CCCCC1 [Vecuronium Bromide] | inactive: 1.2
C[C@@H](O)[C@H]1C(=O)N2C(C(=O)O)=C(S[C@@H]3CN[C@H](C(=O)N(C)C)C3)[C@H](C)[C@H]12 [Meropenem] | inactive: 1.43
CC1(C)C[C@@H]1C(=O)N/C(=C\CCCCSC[C@H](N)C(=O)O)C(=O)O [Cilastatin] | inactive: 1.16
CO/N=C(\C(=O)N[C@@H]1C(=O)N2C(C(=O)[O-])=C(C[N+]3(C)CCCC3)CS[C@H]12)c1csc(N)n1 [Cefepime] | inactive: 1.41
CNCCCC12CCC(c3ccccc31)c1ccccc12 [Maprotiline] | inactive: 1.65
OC(c1cc(C(F)(F)F)nc2c(C(F)(F)F)cccc12)C1CCCCN1 (centres undefined) [mefloquine] | inactive: 1.56
O=C(NCCN1CCOCC1)c1ccc(Cl)cc1 [Moclobemide] | active: 4.74
NCCNCCNCCN [Trientine Hydrochloride] | inactive: 2.19
CCN1CCCC(OC(=O)C(c2ccccc2)c2ccccc2)C1 (centres undefined) [Piperidolate Hydrochloride] | active: 3.22
COc1c(C)c2c(c(O)c1C/C=C(\C)CCC(=O)O)C(=O)OC2 [Mycophenolic Acid] | inactive: 2.28
O=C(Oc1ccccc1C(=O)O)c1ccccc1O [Salsalate] | inactive: 1.91
Nc1c(CC(=O)O)cccc1C(=O)c1ccc(Br)cc1 [Bromfenac] | inactive: 2.17
CN1C(=O)OC(C)(C)C1=O [Trimethadione] | inactive: 2.29

Structure (SMILES) | Mahalanobis distance
CC(=O)CCCCn1c(=O)c2c(ncn2C)n(C)c1=O [Pentoxifylline] | inactive: 1.61
CCOC(=O)c1ncn2c1CN(C)C(=O)c1cc(F)ccc1-2 [Flumazenil] | inactive: 2.03
Nc1nc(N)c2nc(CNc3ccc(C(=O)N[C@@H](CCC(=O)O)C(=O)O)cc3)cnc2n1 [Aminopterin] | active: 3.26
CC(C(=O)O)c1cccc(C(=O)c2ccccc2)c1 (centres undefined) [Ketoprofen] | active: 3.81
CCCC1O[C@@H]2C[C@H]3[C@@H]4CCC5=CC(=O)C=C[C@]5(C)[C@H]4[C@@H](O)C[C@]3(C)[C@]2(C(=O)CO)O1 (some centres undefined) [Budesonide] | inactive: 1.74
COc1ccc(C(=O)CC(=O)c2ccc(C(C)(C)C)cc2)cc1 [Avobenzone] | inactive: 1.68
COc1c(N2C[C@@H]3CCCN[C@@H]3C2)c(F)cc2c(=O)c(C(=O)O)cn(C3CC3)c12 [Moxifloxacin Hydrochloride] | inactive: 2.07
COc1ccc(C(=O)c2ccccc2)c(O)c1 [Oxybenzone] | inactive: 2.32
CC(=O)OCC(=O)[C@@]1(O)[C@H](C)C[C@H]2[C@@H]3CCC4=CC(=O)C=C[C@]4(C)[C@@]3(F)[C@@H](O)C[C@@]21C [Dexamethasone Acetate] | inactive: 1.9
COc1ncnc(NS(=O)(=O)c2ccc(N)cc2)c1OC [Sulfadoxine] | inactive: 1.43
CC(C)(C)NC(=O)[C@@H]1C[C@@H]2CCCC[C@@H]2CN1C[C@@H](O)[C@H](Cc1ccccc1)NC(=O)[C@H](CC(N)=O)NC(=O)c1ccc2ccccc2n1 [Saquinavir] | active: 3.61
CCCCCN(CCCCC)C(=O)C(CCC(=O)O)NC(=O)c1ccc(Cl)c(Cl)c1 (centres undefined) [Lorglumide Sodium] | inactive: 1.97
Nc1nc2c(ncn2COCCO)c(=O)[nH]1 [Acyclovir] | inactive: 1.25
C#C[C@]1(O)CC[C@H]2[C@@H]3CCc4cc(O)ccc4[C@H]3CC[C@@]21C [Ethinylestradiol] | active: 2.79
C/C(=C(\CCOP(=O)(O)O)SC(=O)c1ccccc1)N(C=O)Cc1cnc(C)nc1N [Benfotiamine] | inactive: 1.95
C=C[C@@]1(C)CC(=O)[C@]2(O)[C@@]3(C)[C@@H](O)CCC(C)(C)[C@@H]3[C@H](O)[C@H](OC(C)=O)[C@@]2(C)O1 [Colforsin] | active: 3.95
CN(Cc1cnc2nc(N)nc(N)c2n1)c1ccc(C(=O)NC(CCC(=O)O)C(=O)O)cc1 (racemic) [Methotrexate(+/-)] | inactive: 1.54
CCN(CC)C(=S)SSC(=S)N(CC)CC [Disulfiram] | active: 2.75
O=C(CCCCCCC(=O)Nc1ccccc1)NO [Vorinostat] | active: 2.9
CC[C@H]1OC(=O)C[C@@H](O)[C@H](C)[C@@H](O[C@@H]2O[C@H](C)[C@@H](O[C@H]3C[C@@](C)(O)[C@@H](O)[C@H](C)O3)[C@H](N(C)C)[C@H]2O)[C@@H](CC=O)C[C@@H](C)C(=O)/C=C/C(C)=C/[C@@H]1CO[C@@H]1O[C@H](C)[C@@H](O)[C@@H](OC)[C@H]1OC [Tylosin Tartrate] | inactive: 1.7
CCN(CC)CCOc1ccc2c(c1)C(=O)c1cc(OCCN(CC)CC)ccc1-2 [Tilorone] | active: 2.93
CCOC(=O)n1ccn(C)c1=S [Carbimazole] | inactive: 1.81
O=C1CN(/N=C/c2ccc(-c3ccc([N+](=O)[O-])cc3)o2)C(=O)N1 [Dantrolene] | active: 2.97
